In this test the test system is BDF1 mice, Lewis lung carcinoma iv, survival T/C. Nature of the test: NCI In Vivo Anticancer Drug Screen. Data for tumor model Lewis Lung Carcinoma (intravenous) in B6D2F1 (BDF1) mice. Particulars: T/C endpoint: median survival time, schedule: Q01DX009 (ip), higher T/C = longer survival. As for the experimental part: The antitumor activity of compounds was measured in mice bearing transplantable tumors. Survival or tumor size were measured and the results are expressed as the measurement made in the treated group (T) divided by the measurement made in the vehicle treated control group (C). The tumor model used in this assay is Lewis Lung Carcinoma (intravenous) in B6D2F1 (BDF1) mice

The list is a part of this screen's results and no random one: its compounds were picked by chemical class. Other doses and runs of a compound may be missing. T/C is the treated group as % of the vehicle group. Where survival is the endpoint, the PubChem record calls one and a half times the control and up active, and a quarter to a half above the control has no call in these data; cut-offs in other NCI protocols can differ. Schedules are NCI's codes, read here as Q, the interval in days (D) or hours (H), X, the number of doses. Some entries show no survivor count and are marked so; the dose need not have been tolerated.

Drawing on PubChem BioAssay AID274 (DTP/NCI, 2004), this text covers T/C for three molecules.

In the case of `CC1=C[C@H]2O[C@@H]3C[C@H]4OC(=O)/C=C\C=C\[C@H]([C@@H](C)O)OC[C@H](O)[C@@]5(C)O[C@@H]5C(=O)OC[C@@]2(C[C@H]1O)[C@]4(C)C31CO1` (some centres not stated), the T/C was 116 % of control [survivor count not shown] (dose: 0.15 mg/kg/injection, vehicle: Klucel (hydroxypropylcellulose) (HPC)); 94 % of control [survivor count not shown] (dose: 0.31 mg/kg/injection, vehicle: Klucel (hydroxypropylcellulose) (HPC)); 99 % of control [survivor count not shown] (dose: 1.25 mg/kg/injection, vehicle: Klucel (hydroxypropylcellulose) (HPC)).
Regarding `CC1=C[C@H]2O[C@@H]3C[C@H]4OC(=O)/C=C\C=C\C(C(C)O)OCC[C@@H](C)[C@H](O)C(=O)OC[C@@]2(CC1)[C@]4(C)[C@]31CO1` (some centres not stated), the T/C (dose: 0.03 mg/kg/injection, vehicle: Klucel (hydroxypropylcellulose) (HPC)) is 92 % of control [survivor count not shown].
Turning to `C=C(C)C(=O)OCC12CCC(C)=CC1OC1C(=O)C(OC(=O)C(=C)C)C2(C)C12CO2` (configuration not stated), the T/C by setting is: (dose: 0.25 mg/kg/injection, vehicle: DMSO) 101 % of control [survivor count not shown]; (dose: 0.25 mg/kg/injection, vehicle: saline with Tween-80) 93 % of control [survivor count not shown]; (dose: 0.5 mg/kg/injection, vehicle: DMSO) 97 % of control [survivor count not shown]; (dose: 0.5 mg/kg/injection, vehicle: saline with Tween-80) 98 % of control [survivor count not shown]; (dose: 1.0 mg/kg/injection, vehicle: saline with Tween-80) 102 % of control [survivor count not shown]; (dose: 2.0 mg/kg/injection, vehicle: saline with Tween-80) 102 % of control [survivor count not shown]. Further, the T/C (dose: 4.0 mg/kg/injection, vehicle: saline with Tween-80) was 102 % of control [survivor count not shown] and the T/C (dose: 8.0 mg/kg/injection, vehicle: saline with Tween-80) is 93 % of control [survivor count not shown].
